# Assay results published in patent US9446047B2, “Substituted 2,3-dihydro-1H-inden-1-one retinoic acid-related orphan nuclear receptor antagonists for treating multiple sclerosis” (Arrien Pharmaceuticals LLC, priority 2013, dated 2016).
# At least one structure is not confirmed: it was looked up by name or label, or the drawing left a doubt.
# Tested on: MOG35-55 induced EAE
# Test: MOG35-55 induced EAE in female C57BL/6 mice
# Assay type: in vivo, mouse
# Conditions: oral QD 28 days prophylactic treatment
smiles,measurement,value
CCCCCCCCc1ccc(CCC(N)(CO)CO)cc1 [Fingolimod],disease severity,successfully controlled
